# From PMC12434083
# Where two headings read alike, the source gives them in different places. No constants are given. Whether binding was seen depends on the method and setting. Binding seen in cells or lysates may run through a third protein. A yes stands for co-enrichment or nearness to the bait. Other partners may have been found. No binding means not detected with the bait.
# How the values were obtained:
# [1] = target: SigA-TS (housekeeping sigma factor SigA with a C-terminal Twin-Strep-tag) (Bacillus subtilis) (UniProt P06224); test: affinity purification with mass spectrometry; TIE-UP-SIN: 14N/15N metabolic labelling, in vivo cross-linking with 0.2% or 0.4% (w/v) formaldehyde (15 min, 37°C), pellets mixed before lysis (WT/WT, Bait/WT, Bait/Bait), SigA-TS captured by its Twin-Strep-tag on MagStrep Strep-Tactin XT beads (20 mM HEPES pH 8, 1% Tween20, 1 h, room temperature), eluted with 100 mM biotin, cross-links reversed (95°C, 2 h), DIA LC-MS/MS, light/heavy ratios; cells in exponential growth or 10 min after 4% (v/v) ethanol; eluates also checked by Western blot (Strep-Tactin conjugate) and silver gel
# [2] = target: SigA-TS (housekeeping sigma factor SigA with a C-terminal Twin-Strep-tag) (Bacillus subtilis) (UniProt P06224); test: as above; remark: listed apart in the source
Molecule,binding [1],binding [2]
PurA (from UniProt P29726 1-430),no binding,–
"ClpX, the ATPase subunit of the ATP-dependent ClpXP protease (from UniProt P50866 1-420)",binds,–
"Spo0M (protein, UniProt P71088 1-258) MSFFKKLAASAGIGAAKVDTILEKDAYFPGEEVQGTVHVKGGKIAQDIRYIDLQLSTRYVIVKDDEEHRKYATIHSFRVTGSFTIQPGEEHQFPFTFTLPLDTPITVGKVEVAVVTDLDIQGGIDKSDHDRIFVEAHPWIENVLEAIENLGFRLNEADCEQAPYFQRRLPFVQEFEFVPTSGYYRQMLDELELIFLLDEDGLEIIFEVDRRARGLRGWLEEMYNDGEQLVRVRFSQSELEDTEELEEVLEEILDQYAE",–,binds
"AcpA, the acyl carrier protein (protein, UniProt P80643 1-77) MADTLERVTKIIVDRLGVDEADVKLEASFKEDLGADSLDVVELVMELEDEFDMEISDEDAEKIATVGDAVNYIQNQQ",–,binds
"pyruvate carboxylase (PycA) (protein, UniProt Q9KWU4 1-1148, biotinylated (site not given)) MSQQSIQKVLVANRGEIAIRIFRACTELNIRTVAVYSKEDSGSYHRYKADEAYLVGEGKKPIDAYLDIEGIIDIAKRNKVDAIHPGYGFLSENIHFARRCEEEGIVFIGPKSEHLDMFGDKVKAREQAEKAGIPVIPGSDGPAETLEAVEQFGQANGYPIIIKASLGGGGRGMRIVRSESEVKEAYERAKSEAKAAFGNDEVYVEKLIENPKHIEVQVIGDKQGNVVHLFERDCSVQRRHQKVIEVAPSVSLSPELRDQICEAAVALAKNVNYINAGTVEFLVANNEFYFIEVNPRVQVEHTITEMITGVDIVQTQILVAQGHSLHSKKVNIPEQKDIFTIGYAIQSRVTTEDPQNDFMPDTGKIMAYRSGGGFGVRLDTGNSFQGAVITPYYDSLLVKLSTWALTFEQAAAKMVRNLQEFRIRGIKTNIPFLENVAKHEKFLTGQYDTSFIDTTPELFNFPKQKDRGTKMLTYIGNVTVNGFPGIGKKEKPAFDKPLGVKVDVDQQPARGTKQILDEKGAEGLANWVKEQKSVLLTDTTFRDAHQSLLATRIRSHDLKKIANPTAALWPELFSMEMWGGATFDVAYRFLKEDPWKRLEDLRKEVPNTLFQMLLRSSNAVGYTNYPDNVIKEFVKQSAQSGIDVFRIFDSLNWVKGMTLAIDAVRDTGKVAEAAICYTGDILDKNRTKYDLAYYTSMAKELEAAGAHILGIKDMAGLLKPQAAYELVSALKETIDIPVHLHTHDTSGNGIYMYAKAVEAGVDIIDVAVSSMAGLTSQPSASGFYHAMEGNDRRPEMNVQGVELLSQYWESVRKYYSEFESGMKSPHTEIYEHEMPGGQYSNLQQQAKGVGLGDRWNEVKEMYRRVNDMFGDIVKVTPSSKVVGDMALYMVQNNLTEKDVYEKGESLDFPDSVVELFKGNIGQPHGGFPEKLQKLILKGQEPITVRPGELLEPVSFEAIKQEFKEQHNLEISDQDAVAYALYPKVFTDYVKTTESYGDISVLDTPTFFYGMTLGEEIEVEIERGKTLIVKLISIGEPQPDATRVVYFELNGQPREVVIKDESIKSSVQERLKADRTNPSHIAASMPGTVIKVLAEAGTKVNKGDHLMINEAMKMETTVQAPFSGTIKQVHVKNGEPIQTGDLLLEIEKA",–,no binding
